Test results as given in PMC6756021.
Results are given in words; binding and its absence hold for the method and conditions named. Binding seen in cells or lysates may run through a third protein.

Protein sequences, listed by entry. Tags and fused reporters are not part of them. Residues count along the entry.
UniProt O95994, residues 21-175: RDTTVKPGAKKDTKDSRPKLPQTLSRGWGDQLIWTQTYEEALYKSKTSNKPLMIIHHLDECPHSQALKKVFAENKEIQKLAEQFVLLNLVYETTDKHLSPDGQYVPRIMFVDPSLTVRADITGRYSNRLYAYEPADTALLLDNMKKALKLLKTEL
UniProt Q96CV9: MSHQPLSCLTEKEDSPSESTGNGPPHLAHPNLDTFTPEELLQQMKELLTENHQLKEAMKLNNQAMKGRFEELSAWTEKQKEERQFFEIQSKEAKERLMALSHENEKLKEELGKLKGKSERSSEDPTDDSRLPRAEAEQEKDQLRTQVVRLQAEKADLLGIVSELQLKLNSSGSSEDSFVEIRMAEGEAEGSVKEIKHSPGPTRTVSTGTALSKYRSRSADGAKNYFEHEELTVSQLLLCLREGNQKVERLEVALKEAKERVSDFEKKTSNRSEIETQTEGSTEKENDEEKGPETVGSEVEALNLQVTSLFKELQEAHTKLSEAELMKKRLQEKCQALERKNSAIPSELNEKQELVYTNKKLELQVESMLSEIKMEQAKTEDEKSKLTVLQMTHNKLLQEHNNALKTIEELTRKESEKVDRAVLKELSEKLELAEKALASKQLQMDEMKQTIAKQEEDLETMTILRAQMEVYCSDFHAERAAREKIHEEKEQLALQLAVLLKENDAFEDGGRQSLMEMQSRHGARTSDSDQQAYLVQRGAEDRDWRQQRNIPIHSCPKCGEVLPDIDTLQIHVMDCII

B1: NDP52, endogenous (protein, UniProt Q13137 1-446)
chain: MEETIKDPPTSAVLLDHCHFSQVIFNSVEKFYIPGGDVTCHYTFTQHFIPRRKDWIGIFRVGWKTTREYYTFMWVTLPIDLNNKSAKQQEVQFKAYYLPKDDEYYQFCYVDEDGVVRGASIPFQFRPENEEDILVVTTQGEVEEIEQHNKELCKENQELKDSCISLQKQNSDMQAELQKKQEELETLQSINKKLELKVKEQKDYWETELLQLKEQNQKMSSENEKMGIRVDQLQAQLSTQEKEMEKLVQGDQDKTEQLEQLKKENDHLFLSLTEQRKDQKKLEQTVEQMKQNETTAMKKQQELMDENFDLSKRLSENEIICNALQRQKERLEGENDLLKRENSRLLSYMGLDFNSLPYQVPTSDEGGARQNPGLAYGNPYSGIQESSSPSPLSIKKCPICKADDICDHTLEQQQMQPLCFNCPICDKIFPATEKQIFEDHVFCHSL

Molecular target: Anterior gradient 2 (AGR2), endogenous (human (endogenous in A549)) (UniProt O95994)
Test: co-IP; endogenous proteins; lysates (RIPA buffer) of MG132-treated cells (A549 named for Fig. 6b) precipitated with anti-AGR2 antibody and protein G plus-agarose, 4 °C overnight; blot for the autophagy receptor

binding, no binding:
OPTN, endogenous (from UniProt Q96CV9 1-577)
p62, endogenous (from UniProt Q13501 1-440)
B1
